Laboratory results from article doi:10.1101/2024.08.01.24311333.
No constants are given. Whether binding was seen depends on the method and setting. In cells and extracts the contact can be indirect. Here binding means that the protein was enriched with, or labelled near, the bait; the list need not be complete. Tags and fused reporters may be left off the sequences shown.

The chains behind the UniProt entries cited, without tags or fusion partners.
UniProt Q12834: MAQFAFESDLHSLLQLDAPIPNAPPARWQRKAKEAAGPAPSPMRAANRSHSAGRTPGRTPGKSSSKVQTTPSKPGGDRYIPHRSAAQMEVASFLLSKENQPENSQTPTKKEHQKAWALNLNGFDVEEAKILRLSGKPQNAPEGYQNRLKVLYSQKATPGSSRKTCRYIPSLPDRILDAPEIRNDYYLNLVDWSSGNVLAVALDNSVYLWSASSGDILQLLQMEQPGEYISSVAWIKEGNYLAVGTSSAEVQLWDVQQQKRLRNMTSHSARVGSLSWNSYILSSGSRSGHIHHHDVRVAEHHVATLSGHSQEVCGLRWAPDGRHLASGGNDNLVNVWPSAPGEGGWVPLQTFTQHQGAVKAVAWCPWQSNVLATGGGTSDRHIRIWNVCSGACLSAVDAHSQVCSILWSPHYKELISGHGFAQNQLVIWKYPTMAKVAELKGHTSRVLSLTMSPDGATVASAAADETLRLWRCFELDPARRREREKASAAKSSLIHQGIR
UniProt Q9UNE7: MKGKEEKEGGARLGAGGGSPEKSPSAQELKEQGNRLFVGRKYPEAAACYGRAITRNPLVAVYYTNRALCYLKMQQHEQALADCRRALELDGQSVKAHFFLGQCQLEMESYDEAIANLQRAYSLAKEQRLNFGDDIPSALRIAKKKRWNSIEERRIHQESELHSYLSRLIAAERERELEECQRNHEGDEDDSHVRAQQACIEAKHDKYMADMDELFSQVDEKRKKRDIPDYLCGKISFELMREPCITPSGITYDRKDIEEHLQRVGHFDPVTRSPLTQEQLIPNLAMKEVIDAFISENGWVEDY
UniProt Q15386: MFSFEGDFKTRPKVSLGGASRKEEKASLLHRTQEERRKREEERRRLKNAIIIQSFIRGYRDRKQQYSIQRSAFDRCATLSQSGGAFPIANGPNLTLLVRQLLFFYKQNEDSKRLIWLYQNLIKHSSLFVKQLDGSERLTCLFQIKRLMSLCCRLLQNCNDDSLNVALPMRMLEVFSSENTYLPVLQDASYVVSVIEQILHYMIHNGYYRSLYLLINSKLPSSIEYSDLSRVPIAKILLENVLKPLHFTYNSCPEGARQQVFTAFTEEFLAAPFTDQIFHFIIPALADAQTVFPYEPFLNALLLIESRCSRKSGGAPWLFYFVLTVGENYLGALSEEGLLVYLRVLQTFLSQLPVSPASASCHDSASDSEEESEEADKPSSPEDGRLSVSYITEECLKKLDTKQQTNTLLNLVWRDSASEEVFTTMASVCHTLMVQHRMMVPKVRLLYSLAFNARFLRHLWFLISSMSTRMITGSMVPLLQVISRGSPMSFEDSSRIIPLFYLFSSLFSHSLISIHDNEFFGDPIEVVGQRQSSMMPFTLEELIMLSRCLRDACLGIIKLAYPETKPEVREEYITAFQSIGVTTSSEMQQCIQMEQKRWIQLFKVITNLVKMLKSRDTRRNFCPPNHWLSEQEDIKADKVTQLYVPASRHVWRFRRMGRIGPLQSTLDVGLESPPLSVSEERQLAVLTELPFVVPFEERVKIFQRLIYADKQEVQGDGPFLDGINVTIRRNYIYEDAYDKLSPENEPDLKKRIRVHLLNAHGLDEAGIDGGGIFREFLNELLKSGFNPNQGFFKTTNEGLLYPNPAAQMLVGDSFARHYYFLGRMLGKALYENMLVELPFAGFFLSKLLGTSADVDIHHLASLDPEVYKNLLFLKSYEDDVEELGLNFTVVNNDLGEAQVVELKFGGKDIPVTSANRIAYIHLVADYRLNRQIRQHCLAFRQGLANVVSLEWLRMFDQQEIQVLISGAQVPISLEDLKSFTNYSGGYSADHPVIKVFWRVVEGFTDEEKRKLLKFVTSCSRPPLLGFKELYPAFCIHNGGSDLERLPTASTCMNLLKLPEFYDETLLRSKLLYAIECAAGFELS

The substances below were run against T1, Cadherin-26, FLAG-tagged, full-CDH26 (1-832) (human) (UniProt Q8IXH8) (assay: affinity purification with mass spectrometry).
T1 sequence: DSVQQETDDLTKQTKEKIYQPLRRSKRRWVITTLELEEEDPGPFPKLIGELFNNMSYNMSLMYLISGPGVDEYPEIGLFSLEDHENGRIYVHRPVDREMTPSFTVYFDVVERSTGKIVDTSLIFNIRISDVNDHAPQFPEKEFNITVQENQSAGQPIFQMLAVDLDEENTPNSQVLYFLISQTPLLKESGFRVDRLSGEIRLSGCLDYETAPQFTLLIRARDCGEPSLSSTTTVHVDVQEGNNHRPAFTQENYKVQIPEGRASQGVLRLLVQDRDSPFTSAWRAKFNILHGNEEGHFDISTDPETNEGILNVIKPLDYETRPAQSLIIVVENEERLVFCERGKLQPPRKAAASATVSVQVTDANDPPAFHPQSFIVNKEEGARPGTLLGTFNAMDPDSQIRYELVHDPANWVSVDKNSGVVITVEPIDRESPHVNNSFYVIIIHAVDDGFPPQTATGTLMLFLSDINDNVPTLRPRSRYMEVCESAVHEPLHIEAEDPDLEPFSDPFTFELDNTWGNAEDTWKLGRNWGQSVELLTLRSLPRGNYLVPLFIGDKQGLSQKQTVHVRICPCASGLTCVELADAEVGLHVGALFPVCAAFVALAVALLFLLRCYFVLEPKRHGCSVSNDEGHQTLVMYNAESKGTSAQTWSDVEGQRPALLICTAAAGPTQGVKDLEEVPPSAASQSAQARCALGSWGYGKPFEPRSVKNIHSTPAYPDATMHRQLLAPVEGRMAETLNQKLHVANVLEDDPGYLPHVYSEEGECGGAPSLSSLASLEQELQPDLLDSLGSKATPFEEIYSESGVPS

binding, binds:
CDC20 (from UniProt Q12834 1-499), STIP1 homology and U-box-containing protein 1 (from UniProt Q9UNE7 1-303) (enzyme), UBE3C (from UniProt Q15386 1-1083) (enzyme)
